# Some of the results follow. These are further read-outs of the screen, such as a control signal, another cell line or another target. No call is given for them. The list favours compounds with an active or inconclusive main result. Potencies come from curve fits of mixed quality, noted in brackets.
# Assay: qHTS Assay to Find Inhibitors of Chronic Active B-Cell Receptor Signaling
# Conditions: ABC-DLBCL IkBa-CBG/CBR reporter, luminescence ratio (green luciferase fused to IkBa over red control in TMD8 lymphoma cells), 4 h
# In short: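 TMD8 ABC-DLBCL cells carrying doxycycline-inducible green luciferase fused to IkappaBalpha plus unfused red luciferase were exposed to compounds (up to 46 uM) for 4 hrs at 37C. Activity came from the overlap-corrected green/red luminescence ratio.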
# [1] = measured here: CBR red luminescence, cell number
# [2] = measured here: IkBa-CBG green luminescence
smiles,measurement,setting,value
CC(=O)Nc1cccc(-c2nnc(SCC(=O)n3c4c(c5ccccc53)CCCC4)n2C)c1,AC50,[1],"29.1 µM [rising, single point]"
Cc1cc(NC(=O)c2ccccc2)ccc1NC(=O)c1ccccc1Cl,AC50,[1],"11.2 µM [rising, partial curve]"
same,AC50,[2],"11.2 µM [falling, single point]"
O=C(NC1CC2CCCC(C1)N2C(=S)NCCc1ccccc1)C1CC1 (stereo not given),AC50,[1],"0.398 µM [rising, full curve, poor fit]"
CCc1ccc(NC(=O)Cn2c(=O)c3cccn3c3ccccc32)cc1,AC50,[1],"25.1 µM [rising, single point]"
O=C(O)c1cc(-c2cccs2)nc2cc3c(cc12)OCCO3,AC50,[1],"20.6 µM [falling, single point]"
Cc1nn(-c2ccccc2)c(C)c1C(=O)OCC(=O)Nc1ccc2c(c1)OCO2,AC50,[1],"25.1 µM [falling, single point]"
O=C(N/N=C\c1cccc(F)c1)c1ccc(-c2ccccc2)cc1,AC50,[1],"1.26 µM [rising, full curve, poor fit]"
CCOc1ccc2nc(N(CCN(C)C)C(=O)/C=C/c3cccs3)sc2c1,AC50,[1],"17.8 µM [falling, partial curve, poor fit]"
Cc1c(C(=O)NCc2ccccc2Cl)oc2c1C(=O)CCC2,AC50,[1],"2.91 µM [falling, full curve, poor fit]"
Cc1[nH]c2ccccc2c1-c1nc(-c2ccc(Cl)cc2)nnc1-c1ccccc1,AC50,[1],"7.94 µM [falling, partial curve]"
CC1CCCN(Cc2nc3c(c(=O)n(C)c(=O)n3C)n2CCCc2ccccc2)C1 (stereo not given),AC50,[1],"3.26 µM [falling, partial curve]"
same,AC50,[2],"4.11 µM [rising, partial curve, poor fit]"
O=C(COc1ccccc1)N(CCc1ccccc1)c1nc(-c2ccc(F)cc2)cs1,AC50,[1],"10 µM [rising, partial curve, poor fit]"
CCOc1ccc(OCCC(=O)OCC(=O)N2CCN(S(=O)(=O)c3ccc(Cl)cc3)CC2)cc1,AC50,[1],"2.24 µM [falling, partial curve, poor fit]"
CCOC(=O)c1ccc(NC(=O)CN2C(=O)CSC2=O)cc1,AC50,[1],"7.08 µM [rising, full curve, poor fit]"
O=C(C1CCN(Cc2nc(-c3ccc(Cl)cc3)no2)CC1)N1CCOCC1,AC50,[1],"1.12 µM [rising, full curve, poor fit]"
COc1ccc(-c2csc(-n3cccn3)n2)cc1,AC50,[1],"3.16 µM [rising, partial curve]"
CC(C)=NOc1cc(NC(=O)CCl)cc([N+](=O)[O-])c1,AC50,[1],"13 µM [falling, partial curve, poor fit]"
COc1ccc(NC(=O)n2nc(OC(=O)c3cccs3)cc2N)cc1,AC50,[1],"8.91 µM [falling, partial curve]"
O=S(=O)(CCSc1nc2ccccc2o1)c1nc2ccccc2s1,AC50,[1],"29.1 µM [falling, single point]"
same,AC50,[2],"18.4 µM [rising, partial curve, poor fit]"
CCN(CC)C(=O)[C@H]1CC(CC(=O)NCCC2=CCCCC2)C(=O)N2CCc3c([nH]c4ccccc34)[C@]12C (stereo not given in full),AC50,[1],"18.4 µM [falling, partial curve, poor fit]"
COc1cc(C(C)=O)ccc1Oc1ncnc2c1cnn2-c1ccc(F)cc1,AC50,[1],"6.51 µM [rising, partial curve]"
CCn1c(SCC(=O)Nc2cc(OC)ccc2OC)nnc1C1CCCCC1,AC50,[1],"14.6 µM [falling, partial curve, poor fit]"
O=C(NCCO)C1(c2ccccc2)CCCC1,AC50,[1],"18.4 µM [rising, single point]"
CCOc1cc(NC(=O)Nc2ccccc2)c(OCC)cc1NC(=O)CC,AC50,[1],"3.16 µM [rising, full curve, poor fit]"
CCCCNC(=O)C1(O)c2ccccc2NC(=O)N1c1ccc(Cl)cc1 (stereo not given),AC50,[1],"12.6 µM [rising, partial curve]"
Cc1ccc(-c2nc3c4ccccc4ccn3c2CN2CCCCC2)cc1,AC50,[1],"17.8 µM [rising, partial curve, poor fit]"
O=C(C[n+]1cc(Br)cc2ccccc21)c1ccc(F)cc1,AC50,[1],"10 µM [falling, partial curve, poor fit]"
Cc1ccc(CN2C(=O)N/C(=C/c3ccc(-c4ccc(C(=O)O)cc4)o3)C2=O)cc1,AC50,[1],"11.2 µM [falling, partial curve]"
COc1ccc(/C=N/n2c(SC)nnc2-c2ccccc2)c(OC)c1OC,AC50,[2],"12.6 µM [falling, single point]"
Cn1cnc([N+](=O)[O-])c1Sc1ccc(Br)cc1,AC50,[1],"13 µM [falling, partial curve, poor fit]"
COc1ccc(C(=O)C2CCN(C(=S)NCC3CCCO3)CC2)cc1 (stereo not given),AC50,[1],"1.12 µM [rising, single point]"
COc1ccc(OC)c(CNC(=O)Cc2c(C(=O)O)[nH]c3ccc(Cl)cc23)c1,AC50,[1],"2.82 µM [falling, partial curve, poor fit]"
O=C(Nc1ccccc1)c1nc[nH]c1C(=O)NCCCNC(=O)c1[nH]cnc1C(=O)Nc1ccccc1,AC50,[1],"1.64 µM [rising, partial curve, poor fit]"
COc1ccc(NS(=O)(=O)c2cc(NC(=O)c3cccs3)ccc2N2CCCC2)cc1,AC50,[1],"5.17 µM [falling, full curve]"
CCCCN(CC)CCNC(=S)Nc1ccc2nc(N3CCN(C)CC3)cc(C)c2c1,AC50,[1],"22.4 µM [falling, single point]"
S=c1[nH]nc(-c2ccco2)n1/N=C/C(Cl)=C/c1ccccc1,AC50,[1],"10 µM [falling, partial curve, poor fit]"
same,AC50,[2],"35.5 µM [falling, partial curve, poor fit]"
COc1ccc(C(=O)OCC(=O)NC(=O)NC2CCCC2)cc1OC,AC50,[1],"16.4 µM [falling, single point]"
O=C(NCCCN1CCOCC1)c1ccccc1NS(=O)(=O)c1ccc(F)cc1,AC50,[1],"0.794 µM [rising, full curve, poor fit]"
COc1ccc(/C=C2/SC(=O)N(NS(=O)(=O)c3ccccc3)C2=S)cc1OC,AC50,[1],"29.1 µM [rising, partial curve, poor fit]"
CN(C)S(=O)(=O)c1cccc(C(=O)NCC(C)(C)CNC(=O)c2cccc(S(=O)(=O)N(C)C)c2)c1,AC50,[1],"2.51 µM [falling, partial curve, poor fit]"
COc1ccc(-c2cc3cc4c(cc3cn2)OCO4)cc1,AC50,[1],"29.1 µM [rising, single point]"
Cc1ccc(SCC(=O)NNC(=O)CCS(=O)(=O)c2ccccc2)cc1,AC50,[1],"18.4 µM [rising, partial curve, poor fit]"
CCCCN(C)CCC(=O)Nc1ccc2c(c1)CCC2,AC50,[1],"25.1 µM [falling, single point]"
Cc1ccc(S(=O)(=O)CC(=O)N(C)C)cc1,AC50,[1],"5.8 µM [rising, single point]"
COC(=O)c1c(NC(=O)C(=O)N2CCCCC2)sc2c1CC(C)(C)OC2,AC50,[1],"11.2 µM [rising, partial curve]"
COc1ccc2nc(NC(=O)c3ccc4ncsc4c3)sc2c1,AC50,[1],"2.59 µM [falling, partial curve]"
COC(=O)/C=C1\S/C(=N/NC(=O)c2ccccc2)NC1=O,AC50,[1],"0.366 µM [falling, full curve]"
COc1ccc(-c2nc(N3CCC(C)CC3)[nH]c(=O)c2C#N)cc1,AC50,[1],"0.00461 µM [rising, full curve, poor fit]"
O=C(CSc1nn(-c2ccccc2)c(=S)s1)Nc1ncccn1,AC50,[1],"2.82 µM [rising, full curve]"
CSc1ccc(CN2CCN(C(=O)c3ccc([N+](=O)[O-])cc3)CC2)cc1,AC50,[1],"1 µM [falling, full curve]"
Clc1cccc(CN2CCCCCCC2)c1Cl,AC50,[1],"13 µM [rising, partial curve]"
COc1cccc(NC(=O)c2ccc3c(c2)N(CC(=O)N2CCOCC2)C(=O)C(C)(C)O3)c1,AC50,[1],"5.62 µM [rising, single point]"
CCC1=NN2C(=N)/C(=C\c3cccn3-c3cccc(Cl)c3)C(=O)N=C2S1,AC50,[1],"0.447 µM [rising, full curve]"
O=C(CCNS(=O)(=O)c1ccc(Br)cc1)NC1CCC(O)CC1 (stereo not given),AC50,[1],"29.1 µM [rising, single point]"
Cc1sc(C2C(C#N)=C(N)N(c3ccc(Cl)cc3)C3=C2C(=O)CCC3)cc1CN1CCOCC1 (stereo not given),AC50,[1],"6.31 µM [rising, partial curve, poor fit]"
COc1ccc(C(C(=O)NC2CCCC2)N(Cc2ccccc2)C(=O)c2nsc(Cl)c2Cl)cc1 (stereo not given),AC50,[1],"20.6 µM [falling, single point]"
CC[C@]12c3[nH]c4ccccc4c3CCN1C(=O)C(CC(=O)NC/C=C(\C)CCC=C(C)C)C[C@@H]2C(=O)N1CCN(C(=O)c2ccco2)CC1 (stereo not given in full),AC50,[1],"29.1 µM [falling, single point]"
C=CCn1c(=O)c(C(=O)Nc2ccccc2C)c(O)c2ccccc21,AC50,[1],"0.631 µM [rising, full curve, poor fit]"
COc1cc2sc(-c3ccccc3OC)c(-c3ccc(O)cc3)c2cc1OC,AC50,[1],"23.1 µM [falling, single point]"
same,AC50,[2],"11.6 µM [rising, partial curve, poor fit]"
CCOC(=O)CN1CC23C=CC(O2)C(C(=O)NCc2ccc(C)cc2)C3C1=O (stereo not given),AC50,[1],"8.91 µM [rising, partial curve, poor fit]"

# Reformatted as tab-separated lines: entries from further up.
smiles	measurement	setting	value
COC(=O)c1c(NC(=O)C(=O)N2CCCCC2)sc2c1CC(C)(C)OC2	AC50	[1]	11.2 µM [rising, partial curve]
COc1ccc2nc(NC(=O)c3ccc4ncsc4c3)sc2c1	AC50	[1]	2.59 µM [falling, partial curve]
COC(=O)/C=C1\S/C(=N/NC(=O)c2ccccc2)NC1=O	AC50	[1]	0.366 µM [falling, full curve]
COc1ccc(-c2nc(N3CCC(C)CC3)[nH]c(=O)c2C#N)cc1	AC50	[1]	0.00461 µM [rising, full curve, poor fit]
O=C(CSc1nn(-c2ccccc2)c(=S)s1)Nc1ncccn1	AC50	[1]	2.82 µM [rising, full curve]
CSc1ccc(CN2CCN(C(=O)c3ccc([N+](=O)[O-])cc3)CC2)cc1	AC50	[1]	1 µM [falling, full curve]
Clc1cccc(CN2CCCCCCC2)c1Cl	AC50	[1]	13 µM [rising, partial curve]
COc1cccc(NC(=O)c2ccc3c(c2)N(CC(=O)N2CCOCC2)C(=O)C(C)(C)O3)c1	AC50	[1]	5.62 µM [rising, single point]
CCC1=NN2C(=N)/C(=C\c3cccn3-c3cccc(Cl)c3)C(=O)N=C2S1	AC50	[1]	0.447 µM [rising, full curve]
O=C(CCNS(=O)(=O)c1ccc(Br)cc1)NC1CCC(O)CC1 (stereo not given)	AC50	[1]	29.1 µM [rising, single point]
Cc1sc(C2C(C#N)=C(N)N(c3ccc(Cl)cc3)C3=C2C(=O)CCC3)cc1CN1CCOCC1 (stereo not given)	AC50	[1]	6.31 µM [rising, partial curve, poor fit]
COc1ccc(C(C(=O)NC2CCCC2)N(Cc2ccccc2)C(=O)c2nsc(Cl)c2Cl)cc1 (stereo not given)	AC50	[1]	20.6 µM [falling, single point]
